Measurements as given in the supplement of paper PMC10849652.
This is one part of the list.

Protein sequences, listed by entry. Tags and fused reporters are not part of them. Lines headed by an entry give the natural chain unless they say otherwise; changes in a name come on top.
UniProt O75064: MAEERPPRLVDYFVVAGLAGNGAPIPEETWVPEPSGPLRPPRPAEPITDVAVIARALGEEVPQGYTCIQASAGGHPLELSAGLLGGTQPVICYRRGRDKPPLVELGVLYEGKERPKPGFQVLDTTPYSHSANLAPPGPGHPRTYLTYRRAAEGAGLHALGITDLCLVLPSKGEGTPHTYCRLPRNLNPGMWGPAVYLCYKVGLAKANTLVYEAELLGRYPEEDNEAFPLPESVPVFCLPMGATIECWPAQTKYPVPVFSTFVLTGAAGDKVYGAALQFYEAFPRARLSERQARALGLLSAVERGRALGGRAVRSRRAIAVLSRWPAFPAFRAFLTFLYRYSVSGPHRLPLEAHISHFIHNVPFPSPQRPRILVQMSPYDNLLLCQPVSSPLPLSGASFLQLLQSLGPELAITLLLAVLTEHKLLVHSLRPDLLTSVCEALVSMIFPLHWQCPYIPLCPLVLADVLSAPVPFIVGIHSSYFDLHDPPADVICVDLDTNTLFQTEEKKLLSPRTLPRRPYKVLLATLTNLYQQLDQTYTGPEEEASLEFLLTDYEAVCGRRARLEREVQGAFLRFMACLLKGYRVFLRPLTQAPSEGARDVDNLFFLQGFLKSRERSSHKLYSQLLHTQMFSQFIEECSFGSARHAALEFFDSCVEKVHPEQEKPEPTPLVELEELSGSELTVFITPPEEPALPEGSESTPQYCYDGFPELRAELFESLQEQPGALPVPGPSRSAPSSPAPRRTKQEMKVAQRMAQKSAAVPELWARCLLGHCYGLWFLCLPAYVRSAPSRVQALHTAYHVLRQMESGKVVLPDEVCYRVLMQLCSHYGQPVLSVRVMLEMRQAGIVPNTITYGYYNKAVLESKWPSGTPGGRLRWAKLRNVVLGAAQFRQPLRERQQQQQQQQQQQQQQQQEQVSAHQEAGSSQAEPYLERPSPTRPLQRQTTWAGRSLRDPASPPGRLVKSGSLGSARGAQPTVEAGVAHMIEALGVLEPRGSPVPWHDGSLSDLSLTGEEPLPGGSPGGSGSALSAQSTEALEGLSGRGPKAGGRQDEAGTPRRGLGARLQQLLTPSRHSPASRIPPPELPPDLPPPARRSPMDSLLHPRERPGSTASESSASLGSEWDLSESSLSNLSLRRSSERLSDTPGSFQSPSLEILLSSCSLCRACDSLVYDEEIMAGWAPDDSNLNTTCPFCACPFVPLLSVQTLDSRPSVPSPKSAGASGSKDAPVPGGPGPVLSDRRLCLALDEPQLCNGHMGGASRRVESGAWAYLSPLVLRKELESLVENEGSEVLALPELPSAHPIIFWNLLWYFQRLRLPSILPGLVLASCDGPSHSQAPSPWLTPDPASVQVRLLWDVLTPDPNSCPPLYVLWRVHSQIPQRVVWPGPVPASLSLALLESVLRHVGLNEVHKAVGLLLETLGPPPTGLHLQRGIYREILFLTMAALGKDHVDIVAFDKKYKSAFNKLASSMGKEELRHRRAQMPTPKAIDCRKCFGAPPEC
UniProt Q9GZP9: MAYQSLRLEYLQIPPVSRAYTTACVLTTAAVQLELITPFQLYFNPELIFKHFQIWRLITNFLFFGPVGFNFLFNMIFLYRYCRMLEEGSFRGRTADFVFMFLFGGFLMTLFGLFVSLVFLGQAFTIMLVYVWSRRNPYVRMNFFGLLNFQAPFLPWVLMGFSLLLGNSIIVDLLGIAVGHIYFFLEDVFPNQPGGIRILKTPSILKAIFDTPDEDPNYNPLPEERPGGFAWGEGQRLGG
UniProt P27707: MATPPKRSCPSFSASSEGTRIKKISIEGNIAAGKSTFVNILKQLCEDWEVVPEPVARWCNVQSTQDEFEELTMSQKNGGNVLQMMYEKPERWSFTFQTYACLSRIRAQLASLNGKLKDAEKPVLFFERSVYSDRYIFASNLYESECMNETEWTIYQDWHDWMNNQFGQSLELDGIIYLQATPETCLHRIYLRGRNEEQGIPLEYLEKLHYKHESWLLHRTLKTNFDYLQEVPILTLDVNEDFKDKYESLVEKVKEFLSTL
UniProt Q9NXF7, whole entry, looked up: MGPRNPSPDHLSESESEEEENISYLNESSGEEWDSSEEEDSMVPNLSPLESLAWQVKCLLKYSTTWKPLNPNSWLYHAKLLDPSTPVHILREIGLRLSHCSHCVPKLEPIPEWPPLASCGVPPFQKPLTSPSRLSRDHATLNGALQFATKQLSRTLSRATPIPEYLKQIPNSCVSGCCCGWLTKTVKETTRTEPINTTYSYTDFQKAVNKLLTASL
UniProt Q5TDH0: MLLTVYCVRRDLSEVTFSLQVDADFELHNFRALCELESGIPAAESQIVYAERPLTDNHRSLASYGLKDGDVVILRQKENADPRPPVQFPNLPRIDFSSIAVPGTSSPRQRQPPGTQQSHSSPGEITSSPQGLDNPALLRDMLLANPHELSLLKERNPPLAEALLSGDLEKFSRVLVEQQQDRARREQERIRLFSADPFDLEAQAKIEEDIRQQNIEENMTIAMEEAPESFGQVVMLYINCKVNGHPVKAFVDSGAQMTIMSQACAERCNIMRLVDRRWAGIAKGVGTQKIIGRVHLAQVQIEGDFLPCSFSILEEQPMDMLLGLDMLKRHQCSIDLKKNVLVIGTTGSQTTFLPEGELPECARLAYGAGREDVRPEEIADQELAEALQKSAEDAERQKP
UniProt P11182, whole entry, looked up: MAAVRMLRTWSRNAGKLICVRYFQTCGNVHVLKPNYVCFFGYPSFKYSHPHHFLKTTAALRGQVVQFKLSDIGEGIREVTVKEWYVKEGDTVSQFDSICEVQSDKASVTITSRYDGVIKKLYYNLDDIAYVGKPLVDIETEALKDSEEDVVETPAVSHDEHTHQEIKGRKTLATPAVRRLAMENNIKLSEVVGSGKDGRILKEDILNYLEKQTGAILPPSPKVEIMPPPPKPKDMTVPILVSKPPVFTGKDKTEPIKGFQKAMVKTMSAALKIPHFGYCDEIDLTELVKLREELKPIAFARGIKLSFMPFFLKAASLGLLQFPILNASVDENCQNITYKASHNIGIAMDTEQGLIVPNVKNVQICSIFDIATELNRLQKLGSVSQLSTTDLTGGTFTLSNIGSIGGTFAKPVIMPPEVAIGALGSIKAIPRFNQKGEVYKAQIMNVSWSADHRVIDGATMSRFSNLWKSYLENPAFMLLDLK
UniProt Q9BQ39: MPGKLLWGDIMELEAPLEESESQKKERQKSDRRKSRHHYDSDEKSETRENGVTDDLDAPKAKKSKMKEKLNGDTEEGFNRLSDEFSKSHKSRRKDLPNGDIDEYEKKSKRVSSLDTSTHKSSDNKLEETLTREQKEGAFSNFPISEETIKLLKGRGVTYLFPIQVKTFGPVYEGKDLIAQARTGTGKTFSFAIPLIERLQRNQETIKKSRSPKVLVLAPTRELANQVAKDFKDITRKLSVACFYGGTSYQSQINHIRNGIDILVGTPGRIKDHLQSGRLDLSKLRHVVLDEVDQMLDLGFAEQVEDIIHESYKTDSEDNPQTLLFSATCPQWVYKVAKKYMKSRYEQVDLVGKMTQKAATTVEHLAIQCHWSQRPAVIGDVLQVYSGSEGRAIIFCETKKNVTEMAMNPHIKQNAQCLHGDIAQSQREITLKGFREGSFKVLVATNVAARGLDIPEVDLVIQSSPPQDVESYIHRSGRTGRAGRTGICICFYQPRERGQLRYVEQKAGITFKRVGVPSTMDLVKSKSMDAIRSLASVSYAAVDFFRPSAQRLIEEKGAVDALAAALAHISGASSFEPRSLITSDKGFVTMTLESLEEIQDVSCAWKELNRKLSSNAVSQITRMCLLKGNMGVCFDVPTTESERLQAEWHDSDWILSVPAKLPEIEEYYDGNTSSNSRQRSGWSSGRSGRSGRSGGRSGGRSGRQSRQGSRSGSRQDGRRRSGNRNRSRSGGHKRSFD
UniProt O00273: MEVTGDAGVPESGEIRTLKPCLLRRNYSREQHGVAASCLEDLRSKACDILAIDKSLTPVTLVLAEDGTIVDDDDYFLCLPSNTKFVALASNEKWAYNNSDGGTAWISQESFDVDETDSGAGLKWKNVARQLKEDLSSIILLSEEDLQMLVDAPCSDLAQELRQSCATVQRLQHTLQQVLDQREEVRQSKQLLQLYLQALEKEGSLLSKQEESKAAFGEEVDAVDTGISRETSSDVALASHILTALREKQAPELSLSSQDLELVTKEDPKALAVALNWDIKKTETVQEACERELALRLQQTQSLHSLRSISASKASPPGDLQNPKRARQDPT
UniProt P30046: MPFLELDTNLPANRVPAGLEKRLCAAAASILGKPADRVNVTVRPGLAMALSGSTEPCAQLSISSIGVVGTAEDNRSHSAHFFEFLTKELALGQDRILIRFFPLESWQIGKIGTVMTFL
UniProt Q7Z401: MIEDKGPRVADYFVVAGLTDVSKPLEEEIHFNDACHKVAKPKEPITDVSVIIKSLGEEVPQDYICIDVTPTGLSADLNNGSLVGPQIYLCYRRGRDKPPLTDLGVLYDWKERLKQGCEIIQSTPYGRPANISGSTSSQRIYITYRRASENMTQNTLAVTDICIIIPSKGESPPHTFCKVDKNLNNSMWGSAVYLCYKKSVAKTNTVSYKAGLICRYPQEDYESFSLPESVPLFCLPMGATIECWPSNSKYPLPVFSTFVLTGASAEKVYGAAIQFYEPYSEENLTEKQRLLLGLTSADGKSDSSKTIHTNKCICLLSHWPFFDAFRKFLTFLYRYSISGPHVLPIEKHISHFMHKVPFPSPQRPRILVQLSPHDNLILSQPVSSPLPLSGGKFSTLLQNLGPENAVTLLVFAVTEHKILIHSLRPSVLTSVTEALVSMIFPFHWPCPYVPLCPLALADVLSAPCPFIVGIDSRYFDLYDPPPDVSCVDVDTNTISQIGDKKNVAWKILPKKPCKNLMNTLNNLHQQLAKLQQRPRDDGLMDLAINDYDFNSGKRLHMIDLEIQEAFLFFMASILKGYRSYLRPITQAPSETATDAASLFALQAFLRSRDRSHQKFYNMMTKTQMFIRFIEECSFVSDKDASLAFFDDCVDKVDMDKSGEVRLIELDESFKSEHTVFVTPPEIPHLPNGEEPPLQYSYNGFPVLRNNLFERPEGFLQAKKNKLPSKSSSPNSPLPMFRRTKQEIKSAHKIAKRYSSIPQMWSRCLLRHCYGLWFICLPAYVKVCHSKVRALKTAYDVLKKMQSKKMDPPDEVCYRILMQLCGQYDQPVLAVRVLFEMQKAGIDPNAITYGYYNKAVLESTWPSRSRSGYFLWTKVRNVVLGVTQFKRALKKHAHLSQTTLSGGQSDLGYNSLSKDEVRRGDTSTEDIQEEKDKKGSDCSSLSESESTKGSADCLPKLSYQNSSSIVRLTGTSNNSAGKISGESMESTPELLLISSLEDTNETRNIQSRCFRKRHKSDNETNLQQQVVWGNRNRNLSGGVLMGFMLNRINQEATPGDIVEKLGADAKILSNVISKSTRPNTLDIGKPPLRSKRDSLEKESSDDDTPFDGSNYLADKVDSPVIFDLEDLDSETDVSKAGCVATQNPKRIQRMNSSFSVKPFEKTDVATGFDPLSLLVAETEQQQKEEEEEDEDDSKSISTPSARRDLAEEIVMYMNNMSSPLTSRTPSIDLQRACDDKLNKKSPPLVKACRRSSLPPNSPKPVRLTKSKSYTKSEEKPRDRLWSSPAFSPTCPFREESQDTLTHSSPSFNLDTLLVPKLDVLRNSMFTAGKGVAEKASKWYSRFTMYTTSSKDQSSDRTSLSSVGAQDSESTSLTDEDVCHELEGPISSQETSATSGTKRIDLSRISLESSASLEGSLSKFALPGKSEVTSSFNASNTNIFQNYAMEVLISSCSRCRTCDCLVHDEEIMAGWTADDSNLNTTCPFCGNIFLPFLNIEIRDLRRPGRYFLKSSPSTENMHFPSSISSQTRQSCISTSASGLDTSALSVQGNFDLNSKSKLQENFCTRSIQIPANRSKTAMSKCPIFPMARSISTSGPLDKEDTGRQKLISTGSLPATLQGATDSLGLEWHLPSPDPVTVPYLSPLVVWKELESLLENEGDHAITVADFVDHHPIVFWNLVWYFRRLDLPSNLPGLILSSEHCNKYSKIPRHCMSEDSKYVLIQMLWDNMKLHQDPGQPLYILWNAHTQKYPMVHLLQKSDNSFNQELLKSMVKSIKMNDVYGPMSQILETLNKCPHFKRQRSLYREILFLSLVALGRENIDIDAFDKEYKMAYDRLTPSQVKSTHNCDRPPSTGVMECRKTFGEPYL

Tests used:
Assay in all cases: log2 fold change, soluble protein after heating vs DMSO (PISA); higher = thermal stabilisation; K562 lysate, 10 uM; active = over 0.2 and 3.5 SD of the protein, either way, in both replicates (recomputed)
erlotinib = compound: C#Cc1cccc(Nc2ncnc3cc(OCCOC)c(OCCOC)cc23)c1 [erlotinib]
In short: (§1)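 Log-two fold change in thermal stability relative to solvent controls is reported from duplicates. For each sample, crude K562 extract from dounce-homogenised pellets in PBS pH 7.4 with 1 mM MgCl2, at 1 mg/mL protein, was treated with 10 μM compound for 30 min. Aliquots heated for 3 min across 48°C-58°C were pooled, brought to 0.5% NP-40 at 4°C and cleared at 21,000xg for 90 min. The supernatant was quantified by TMTpro 16plex LC-MS/MS with channel sums equalised.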

[1] = compound: C/C(=N\NC(=O)C1=CC(=CC=C1)S(=O)(=O)N2CCOCC2)/C3=C(C=CC(=C3)Cl)O
In short: as §1

[2] = compound: C1=CC(=CC=C1C2=NC3=C(N2)C=C(C=C3)C(=O)N)OC4=CC=C(C=C4)Cl
In short: as §1

[3] = compound: C1=CC2=C(C=CC(=C2)/C=C\3/C(=O)NC(=NCC4=CC=CS4)S3)N=C1
In short: as §1

[4] = compound: C1=CC2=NC=CN=C2C=C1/C=C/3\C(=O)NC(=O)S3
In short: as §1

[5] = compound: C1=CC=C(C=C1)C2=NC(=C(N2)C3=CC=NC=C3)C4=CC(=C(C=C4)Cl)O
In short: as §1

[6] = compound: C1=CC=C2C(=C1)C3=NNC4=CC=CC(=C43)C2=O
In short: as §1

[7] = compound: C1CCN(C1)C(=O)NC2=CC=CC(=C2)NC3=NC=C(C(=N3)NCCC4=CN=CN4)Br
In short: as §1

[8] = compound: C1CN(CCC1(CC2=CC=C(C=C2)Cl)N)C3=NC=NC4=C3C=CN4
In short: as §1

IRAK-1-4 Inhibitor I = compound: C1COCCN1CCN2C3=CC=CC=C3N=C2NC(=O)C4=CC(=CC=C4)[N+](=O)[O-] [IRAK-1-4 Inhibitor I]
In short: as §1

Measured: log2 fold change

DENND4B (UniProt O75064)
inactive: erlotinib 0.035 | [1] -0.032 | [2] -0.032 | [3] 0.031 | [4] -0.046 | [5] 0.035 | [6] -0.013 | [7] -0.035 | [8] 0.037 | IRAK-1-4 Inhibitor I -0.035

DERL2 (UniProt Q9GZP9)
inactive: erlotinib 0.011 | [1] 0.176 | [2] -0.088 | [3] 0.077 | [4] 0.052 | [5] 0.14 | [6] -0.032 | [7] -0.07 | [8] 0.046 | IRAK-1-4 Inhibitor I 0.052

DCK (UniProt P27707)
inactive: erlotinib -0.019 | [1] 0.002 | [2] 0.01 | [3] -0.006 | [4] -0.041 | [5] -0.007 | [6] 0.015 | [7] -0.037 | [8] 0.033 | IRAK-1-4 Inhibitor I -0.004

DARS2 (UniProt Q6PI48)
inactive: erlotinib 0.043 | [1] -0.078 | [2] 0.016 | [3] 0.045 | [4] 0.049 | [5] -0.042 | [6] -0.039 | [7] -0.06 | [8] 0.01 | IRAK-1-4 Inhibitor I 0.024

DCAF16 (UniProt Q9NXF7)
inactive: erlotinib -0.024 | [1] 0.051 | [2] 0.092 | [3] -0.071 | [4] 0.086 | [5] 0 | [6] -0.006 | [7] 0.041 | [8] 0.01 | IRAK-1-4 Inhibitor I -0.012

DECR1 (UniProt Q16698)
inactive: erlotinib -0.009 | [1] 0.044 | [2] -0.01 | [3] -0.006 | [4] -0.014 | [5] 0.001 | [6] -0.014 | [7] -0.013 | [8] -0.005 | IRAK-1-4 Inhibitor I -0.014

DDI2 isoform 3 (UniProt Q5TDH0)
inactive: erlotinib -0.033 | [1] 0.007 | [2] 0.019 | [3] -0.001 | [4] -0.013 | [5] -0.009 | [6] 0.029 | [7] 0 | [8] -0.018 | IRAK-1-4 Inhibitor I 0.016

DDX21 (UniProt Q9NR30)
inactive: erlotinib 0.005 | [1] -0.028 | [2] -0.051 | [3] 0.047 | [4] 0.01 | [5] 0.032 | [6] 0.027 | [7] 0.006 | [8] 0.012 | IRAK-1-4 Inhibitor I -0.018

DBT (UniProt P11182)
inactive: erlotinib 0.034 | [1] 0.019 | [2] 0.002 | [3] 0.013 | [4] -0.042 | [5] 0.016 | [6] 0.024 | [7] 0.015 | [8] -0.018 | IRAK-1-4 Inhibitor I 0.013

DCAF12 (UniProt Q5T6F0)
inactive: erlotinib -0.059 | [1] 0.03 | [2] 0.011 | [3] -0.045 | [4] -0.076 | [5] -0.038 | [6] -0.03 | [7] -0.134 | [8] 0.241 | IRAK-1-4 Inhibitor I 0.126

DDAH2 (UniProt O95865)
inactive: erlotinib -0.035 | [1] -0.016 | [2] -0.04 | [3] -0.017 | [4] 0.043 | [5] 0.022 | [6] -0.016 | [7] -0.024 | [8] 0.013 | IRAK-1-4 Inhibitor I 0.013

CYP51A1 (UniProt Q16850)
inactive: erlotinib -0.029 | [1] 0.045 | [2] 0.193 | [3] 0.058 | [4] -0.087 | [5] -0.041 | [6] 0.118 | [7] -0.092 | [8] -0.023 | IRAK-1-4 Inhibitor I 0.043

DDX50 (UniProt Q9BQ39)
inactive: erlotinib -0.034 | [1] -0.469 | [2] -0.056 | [3] 0.07 | [4] 0.125 | [5] -0.054 | [6] 0.014 | [7] 0.098 | [8] -0.038 | IRAK-1-4 Inhibitor I 0.026

CYP24A1 (UniProt Q07973)
inactive: erlotinib 0.015 | [1] 0.058 | [2] 0.148 | [3] -0.09 | [4] -0.083 | [5] -0.008 | [6] -0.135 | [7] -0.05 | [8] -0.011 | IRAK-1-4 Inhibitor I 0.07

DDX5 (UniProt P17844)
inactive: erlotinib -0.002 | [1] 0.02 | [2] 0.013 | [3] 0.004 | [4] -0.043 | [5] 0.001 | [6] 0.029 | [7] -0.006 | [8] -0.012 | IRAK-1-4 Inhibitor I -0.019

DDX24 (UniProt Q9GZR7)
inactive: erlotinib 0.048 | [1] -0.01 | [2] -0.015 | [3] 0.034 | [4] -0.013 | [5] 0.02 | [6] 0.03 | [7] 0.037 | [8] 0.015 | IRAK-1-4 Inhibitor I -0.04

DDOST (UniProt P39656)
inactive: erlotinib 0.013 | [1] -0.033 | [2] -0.013 | [3] -0.026 | [4] -0.005 | [5] -0.007 | [6] -0.058 | [7] -0.019 | [8] 0.011 | IRAK-1-4 Inhibitor I 0.022

DFFA (UniProt O00273)
inactive: erlotinib -0.013 | [1] -0.051 | [2] -0.02 | [3] 0.03 | [4] 0.022 | [5] -0.018 | [6] 0.031 | [7] -0.011 | [8] -0.007 | IRAK-1-4 Inhibitor I 0.019

DCTD isoform 2 (UniProt P32321)
inactive: erlotinib -0.008 | [1] -0.027 | [2] -0.013 | [3] 0.003 | [4] 0.02 | [5] -0.008 | [6] -0.007 | [7] -0.004 | [8] -0.008 | IRAK-1-4 Inhibitor I 0.019

DAG1 (UniProt Q14118)
inactive: erlotinib 0.014 | [1] 0.021 | [2] 0.007 | [3] 0.013 | [4] 0.016 | [5] 0 | [6] -0.014 | [7] 0.015 | [8] 0.008 | IRAK-1-4 Inhibitor I 0.019

DBR1 (UniProt Q9UK59)
inactive: erlotinib -0.024 | [1] -0.022 | [2] 0.032 | [3] 0.024 | [4] 0.008 | [5] 0 | [6] 0.007 | [7] -0.03 | [8] -0.016 | IRAK-1-4 Inhibitor I 0.001

DCTN2 (UniProt Q13561)
inactive: erlotinib -0.17 | [1] 0.005 | [2] 0.128 | [3] -0.038 | [4] 0.157 | [5] -0.005 | [6] 0.044 | [7] 0.041 | [8] 0.077 | IRAK-1-4 Inhibitor I 0.08

Reprinted from above (2 entries):
DCTD isoform 2 (UniProt P32321)
inactive: erlotinib -0.008 | [1] -0.027 | [2] -0.013 | [3] 0.003 | [4] 0.02 | [5] -0.008 | [6] -0.007 | [7] -0.004 | [8] -0.008 | IRAK-1-4 Inhibitor I 0.019

DAG1 (UniProt Q14118)
inactive: erlotinib 0.014 | [1] 0.021 | [2] 0.007 | [3] 0.013 | [4] 0.016 | [5] 0 | [6] -0.014 | [7] 0.015 | [8] 0.008 | IRAK-1-4 Inhibitor I 0.019

Later entries:

DDX17 (UniProt Q92841)
inactive: erlotinib -0.002 | [1] 0.051 | [2] 0.018 | [3] -0.009 | [4] -0.022 | [5] -0.004 | [6] -0.024 | [7] -0.008 | [8] -0.005 | IRAK-1-4 Inhibitor I -0.026

DENND1A isoform 6 (UniProt Q8TEH3)
inactive: erlotinib 0.022 | [1] 0.11 | [2] -0.026 | [3] 0.117 | [4] -0.02 | [5] -0.056 | [6] 0 | [7] 0.023 | [8] 0.064 | IRAK-1-4 Inhibitor I -0.021

DDT (UniProt P30046)
inactive: erlotinib -0.004 | [1] 0.034 | [2] -0.005 | [3] 0.03 | [4] 0.009 | [5] -0.02 | [6] 0.018 | [7] 0.034 | [8] 0.107 | IRAK-1-4 Inhibitor I 0.024

DENND4A isoform 2 (UniProt Q7Z401)
inactive: erlotinib 0.023 | [1] -0.021 | [2] -0.015 | [3] 0.007 | [4] -0.045 | [5] 0.002 | [6] -0.041 | [7] 0.002 | [8] 0.012 | IRAK-1-4 Inhibitor I 0.017

DDB2 (UniProt Q92466)
inactive: erlotinib -0.007 | [1] -0.028 | [2] 0.07 | [3] 0.052 | [4] 0.064 | [5] -0.024 | [6] 0 | [7] -0.075 | [8] -0.041 | IRAK-1-4 Inhibitor I 0.026

DAB2 (UniProt P98082)
inactive: erlotinib 0.019 | [1] -0.063 | [2] 0.066 | [3] -0.006 | [4] 0.023 | [5] -0.049 | [6] -0.004 | [7] -0.033 | [8] 0.092 | IRAK-1-4 Inhibitor I 0.019

DAZAP1 (UniProt Q96EP5)
inactive: erlotinib -0.017 | [1] 0.008 | [2] 0.03 | [3] 0.023 | [4] 0.026 | [5] 0.017 | [6] -0.047 | [7] 0.02 | [8] -0.004 | IRAK-1-4 Inhibitor I 0.012

DDX3X (UniProt O00571)
inactive: erlotinib -0.019 | [1] -0.016 | [2] -0.004 | [3] 0.001 | [4] 0.006 | [5] 0.059 | [6] -0.054 | [7] 0.022 | [8] -0.003 | IRAK-1-4 Inhibitor I -0.012
